Laboratory results from publication PMC3747139 (PLoS ONE, 2013).

Tested on: HQF DNA d(TTAGGG)4
Assay: Isothermal titration calorimetry
Assay type: binding, human
Details: ITC; for ΔG2: mode-2, 25°C
Description: When quadruplex DNA melts to form ssDNA structure, SG fluorescence intensity gradually reduces as SG has no binding to ssDNA. Each time, 5 µM of HQF DNA [d(T2AG3)4)], 5 µM of dsDNA (prepared by mixing equal concentration of poly-dA-dT and poly-dT-dA), 5 µM ssDNA ( poly dT alone) and 1 µM of each ligand was incubated at 4°C for 16 h, and used for melting studies. […] Affinity, stoichiometry and thermodynamic parameters for quadruplex-ligand complex were studied with 60 µM of ligand and 10 µM of HQF DNA using Microcal VP-ITC (Northampton, MA, USA). Ligand addition to G-quadruplex DNA was made every 180 seconds. Titration experiments were performed thrice and blank correction was made each time to minimize error.
On integrating the heats produced per injection, with respect to time and conversion to per mole basis, the binding isotherm (Figure 8A) corresponding to each ligand was obtained. […] After making blank correction, the heat data was fitted with “two-independent sites” model and analyzed using Origin 7.1 to calculate thermodynamic parameters.

SMILES	-TΔS1 (mode-1, 25°C) [kcal/mol]	ΔG2 [kcal/mol]
Cc1cn([C@H]2C[C@H](N=[N+]=[N-])[C@@H](CO)O2)c(=O)[nH]c1=O [Ligand L1, 1-(4-azido 5-(hydroxylmethyl)tetrahydrofuran-2-yl)-5-methyl pyrimidi-ne-2,4(1H,3H)-dione, reference compound]	-8.25	-8.11
Cc1cn([C@H]2C[C@H](n3cc(-c4ccccc4)nn3)[C@@H](CO)O2)c(=O)[nH]c1=O [Ligand L2]	–	-8.28
Cc1cn([C@H]2C[C@H](n3cc(-c4ccc(Cl)cc4)nn3)[C@@H](CO)O2)c(=O)[nH]c1=O [Ligand L3, 1-(4-(4-(4-chlorophenly)-1H-1,2,3-triazole-1-yl)-5-(hydroxymethyl)tetrahydrofuran-2-yl)-5-methylpyrimidine-2,3(1H,3H)-dione]	–	-8.41
